No constants are given. Whether binding was seen depends on the method and setting. Binding seen in cells or lysates may run through a third protein. Some results given as binding are weak or reduced against the parent protein; the word gives no strength. Where a sequence is shown, tags or fusion partners need not be part of it.
Tests used:
Stat92E-GFP (Drosophila) = target: T1, Stat92E-GFP (Drosophila) (UniProt Q24151); test: co-IP; ovary extracts from 50 females; proteins chemically cross-linked with DSP prior to cell lysis; GFP magnetic agarose beads (Chromotek, GFP-trap); wash buffer 10 mM Tris-HCl pH7.5, 300 mM NaCl, 0.05% NP40, 0.5 mM EDTA; blots with anti-GFP or anti-E-cadherin
T1 sequence: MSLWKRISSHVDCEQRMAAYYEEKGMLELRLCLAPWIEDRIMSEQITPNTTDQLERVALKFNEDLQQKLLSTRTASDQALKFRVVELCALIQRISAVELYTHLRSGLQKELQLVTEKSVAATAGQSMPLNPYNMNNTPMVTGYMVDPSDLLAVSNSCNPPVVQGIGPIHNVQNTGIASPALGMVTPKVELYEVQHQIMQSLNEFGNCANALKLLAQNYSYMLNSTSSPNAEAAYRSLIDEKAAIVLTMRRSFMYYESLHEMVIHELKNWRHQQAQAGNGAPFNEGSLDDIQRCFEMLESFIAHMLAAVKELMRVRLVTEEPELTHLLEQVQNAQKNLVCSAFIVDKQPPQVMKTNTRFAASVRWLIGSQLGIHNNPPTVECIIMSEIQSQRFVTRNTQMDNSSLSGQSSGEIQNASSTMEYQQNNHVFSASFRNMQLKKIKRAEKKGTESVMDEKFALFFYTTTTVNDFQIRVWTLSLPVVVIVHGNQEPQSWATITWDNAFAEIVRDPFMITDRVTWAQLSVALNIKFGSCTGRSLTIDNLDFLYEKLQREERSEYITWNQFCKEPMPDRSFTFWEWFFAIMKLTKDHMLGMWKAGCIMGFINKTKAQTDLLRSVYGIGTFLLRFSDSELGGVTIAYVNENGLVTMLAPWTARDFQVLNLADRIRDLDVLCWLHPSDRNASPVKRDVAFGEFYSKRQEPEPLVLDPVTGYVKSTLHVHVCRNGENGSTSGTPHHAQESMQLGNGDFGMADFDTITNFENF

[1] = target: T2, Endogenous E-cadherin (Drosophila (endogenous in ovaries)) (UniProt Q24298); test: co-IP; reverse IP; ovary extracts from 50 females; proteins chemically cross-linked with DSP prior to cell lysis; Dynabeads protein G coated with an anti-E-cadherin antibody; wash buffer PBS-Triton 0.02%; blots with anti-GFP or anti-E-cadherin
T2 sequence: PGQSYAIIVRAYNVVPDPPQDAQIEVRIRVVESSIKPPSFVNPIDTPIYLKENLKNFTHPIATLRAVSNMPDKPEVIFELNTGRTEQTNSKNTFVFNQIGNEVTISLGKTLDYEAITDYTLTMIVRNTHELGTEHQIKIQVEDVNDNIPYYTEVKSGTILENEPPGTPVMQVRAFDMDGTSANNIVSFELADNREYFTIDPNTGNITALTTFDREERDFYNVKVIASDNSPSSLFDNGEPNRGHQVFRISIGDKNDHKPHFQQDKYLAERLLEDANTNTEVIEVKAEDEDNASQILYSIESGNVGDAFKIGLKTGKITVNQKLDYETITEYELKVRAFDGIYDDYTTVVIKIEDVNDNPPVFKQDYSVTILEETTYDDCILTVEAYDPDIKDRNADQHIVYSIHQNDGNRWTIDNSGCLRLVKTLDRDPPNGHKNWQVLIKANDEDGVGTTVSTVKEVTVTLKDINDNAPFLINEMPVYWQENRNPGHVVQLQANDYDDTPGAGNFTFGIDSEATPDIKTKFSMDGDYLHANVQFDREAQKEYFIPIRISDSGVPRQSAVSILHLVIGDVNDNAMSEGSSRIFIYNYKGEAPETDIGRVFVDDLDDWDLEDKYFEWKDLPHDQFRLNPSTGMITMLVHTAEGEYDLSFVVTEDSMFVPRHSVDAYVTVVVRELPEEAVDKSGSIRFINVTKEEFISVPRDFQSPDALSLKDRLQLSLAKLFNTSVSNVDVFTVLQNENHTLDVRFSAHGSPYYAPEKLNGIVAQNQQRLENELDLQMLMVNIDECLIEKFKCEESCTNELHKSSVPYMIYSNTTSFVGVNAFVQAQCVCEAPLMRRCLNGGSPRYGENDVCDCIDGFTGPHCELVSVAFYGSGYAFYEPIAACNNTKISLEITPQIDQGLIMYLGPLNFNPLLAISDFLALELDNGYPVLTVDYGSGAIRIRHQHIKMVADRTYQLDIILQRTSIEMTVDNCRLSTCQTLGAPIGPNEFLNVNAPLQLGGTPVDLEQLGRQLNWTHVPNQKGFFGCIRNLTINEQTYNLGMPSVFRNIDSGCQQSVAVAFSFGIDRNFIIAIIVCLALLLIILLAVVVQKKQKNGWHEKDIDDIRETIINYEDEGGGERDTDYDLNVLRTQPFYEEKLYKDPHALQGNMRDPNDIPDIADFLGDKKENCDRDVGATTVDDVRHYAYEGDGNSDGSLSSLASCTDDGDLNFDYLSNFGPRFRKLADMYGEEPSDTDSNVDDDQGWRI

[2] = target: T3, E-cadherin-GFP (shg::GFP Knock-In) (Drosophila) (UniProt Q24298); test: proximity ligation; Duolink PLA on ovaries of shg::GFP Knock-In females with mouse anti-GFP and rabbit anti-Stat92E (D. Montell); Canton females as negative control; Tween 0.1%
T3 sequence: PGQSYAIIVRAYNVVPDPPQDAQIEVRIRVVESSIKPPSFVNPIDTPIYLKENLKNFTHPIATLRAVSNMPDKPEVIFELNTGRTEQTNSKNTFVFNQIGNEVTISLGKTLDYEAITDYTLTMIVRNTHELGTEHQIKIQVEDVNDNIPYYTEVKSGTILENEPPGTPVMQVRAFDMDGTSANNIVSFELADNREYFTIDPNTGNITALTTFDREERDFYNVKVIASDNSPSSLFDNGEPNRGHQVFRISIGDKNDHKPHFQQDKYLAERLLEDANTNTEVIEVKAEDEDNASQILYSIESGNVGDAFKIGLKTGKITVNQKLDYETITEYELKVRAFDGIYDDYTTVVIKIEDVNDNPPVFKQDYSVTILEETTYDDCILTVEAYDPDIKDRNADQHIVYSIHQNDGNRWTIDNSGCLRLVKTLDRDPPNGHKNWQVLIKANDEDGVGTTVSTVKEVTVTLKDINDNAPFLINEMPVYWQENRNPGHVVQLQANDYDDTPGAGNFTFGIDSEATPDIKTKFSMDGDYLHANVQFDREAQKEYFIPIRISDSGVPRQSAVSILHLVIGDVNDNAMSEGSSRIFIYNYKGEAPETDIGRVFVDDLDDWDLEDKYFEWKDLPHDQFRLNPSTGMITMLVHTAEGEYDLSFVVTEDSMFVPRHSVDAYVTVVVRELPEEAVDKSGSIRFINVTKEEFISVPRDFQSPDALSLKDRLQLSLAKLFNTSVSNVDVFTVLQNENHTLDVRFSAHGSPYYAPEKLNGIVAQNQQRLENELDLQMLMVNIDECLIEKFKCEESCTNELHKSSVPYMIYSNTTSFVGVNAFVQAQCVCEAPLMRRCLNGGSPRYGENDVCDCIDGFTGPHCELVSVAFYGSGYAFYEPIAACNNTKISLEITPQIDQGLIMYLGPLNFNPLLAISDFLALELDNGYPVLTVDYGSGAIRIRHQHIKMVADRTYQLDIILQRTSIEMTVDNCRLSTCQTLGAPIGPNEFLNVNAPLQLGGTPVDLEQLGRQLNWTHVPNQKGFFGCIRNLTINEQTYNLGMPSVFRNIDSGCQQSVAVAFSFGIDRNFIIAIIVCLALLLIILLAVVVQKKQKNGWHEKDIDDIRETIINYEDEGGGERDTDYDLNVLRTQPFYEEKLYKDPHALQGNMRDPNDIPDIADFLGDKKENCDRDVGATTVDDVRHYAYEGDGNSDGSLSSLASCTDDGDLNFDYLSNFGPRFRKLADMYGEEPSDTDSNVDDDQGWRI

B1: Endogenous E-cadherin (protein, UniProt Q24298 262-1507)
chain: PGQSYAIIVRAYNVVPDPPQDAQIEVRIRVVESSIKPPSFVNPIDTPIYLKENLKNFTHPIATLRAVSNMPDKPEVIFELNTGRTEQTNSKNTFVFNQIGNEVTISLGKTLDYEAITDYTLTMIVRNTHELGTEHQIKIQVEDVNDNIPYYTEVKSGTILENEPPGTPVMQVRAFDMDGTSANNIVSFELADNREYFTIDPNTGNITALTTFDREERDFYNVKVIASDNSPSSLFDNGEPNRGHQVFRISIGDKNDHKPHFQQDKYLAERLLEDANTNTEVIEVKAEDEDNASQILYSIESGNVGDAFKIGLKTGKITVNQKLDYETITEYELKVRAFDGIYDDYTTVVIKIEDVNDNPPVFKQDYSVTILEETTYDDCILTVEAYDPDIKDRNADQHIVYSIHQNDGNRWTIDNSGCLRLVKTLDRDPPNGHKNWQVLIKANDEDGVGTTVSTVKEVTVTLKDINDNAPFLINEMPVYWQENRNPGHVVQLQANDYDDTPGAGNFTFGIDSEATPDIKTKFSMDGDYLHANVQFDREAQKEYFIPIRISDSGVPRQSAVSILHLVIGDVNDNAMSEGSSRIFIYNYKGEAPETDIGRVFVDDLDDWDLEDKYFEWKDLPHDQFRLNPSTGMITMLVHTAEGEYDLSFVVTEDSMFVPRHSVDAYVTVVVRELPEEAVDKSGSIRFINVTKEEFISVPRDFQSPDALSLKDRLQLSLAKLFNTSVSNVDVFTVLQNENHTLDVRFSAHGSPYYAPEKLNGIVAQNQQRLENELDLQMLMVNIDECLIEKFKCEESCTNELHKSSVPYMIYSNTTSFVGVNAFVQAQCVCEAPLMRRCLNGGSPRYGENDVCDCIDGFTGPHCELVSVAFYGSGYAFYEPIAACNNTKISLEITPQIDQGLIMYLGPLNFNPLLAISDFLALELDNGYPVLTVDYGSGAIRIRHQHIKMVADRTYQLDIILQRTSIEMTVDNCRLSTCQTLGAPIGPNEFLNVNAPLQLGGTPVDLEQLGRQLNWTHVPNQKGFFGCIRNLTINEQTYNLGMPSVFRNIDSGCQQSVAVAFSFGIDRNFIIAIIVCLALLLIILLAVVVQKKQKNGWHEKDIDDIRETIINYEDEGGGERDTDYDLNVLRTQPFYEEKLYKDPHALQGNMRDPNDIPDIADFLGDKKENCDRDVGATTVDDVRHYAYEGDGNSDGSLSSLASCTDDGDLNFDYLSNFGPRFRKLADMYGEEPSDTDSNVDDDQGWRI
For B1, the binding (Stat92E-GFP (Drosophila)) was “binds”.

B2: Stat92E-GFP (protein, UniProt Q24151 1-761)
chain: MSLWKRISSHVDCEQRMAAYYEEKGMLELRLCLAPWIEDRIMSEQITPNTTDQLERVALKFNEDLQQKLLSTRTASDQALKFRVVELCALIQRISAVELYTHLRSGLQKELQLVTEKSVAATAGQSMPLNPYNMNNTPMVTGYMVDPSDLLAVSNSCNPPVVQGIGPIHNVQNTGIASPALGMVTPKVELYEVQHQIMQSLNEFGNCANALKLLAQNYSYMLNSTSSPNAEAAYRSLIDEKAAIVLTMRRSFMYYESLHEMVIHELKNWRHQQAQAGNGAPFNEGSLDDIQRCFEMLESFIAHMLAAVKELMRVRLVTEEPELTHLLEQVQNAQKNLVCSAFIVDKQPPQVMKTNTRFAASVRWLIGSQLGIHNNPPTVECIIMSEIQSQRFVTRNTQMDNSSLSGQSSGEIQNASSTMEYQQNNHVFSASFRNMQLKKIKRAEKKGTESVMDEKFALFFYTTTTVNDFQIRVWTLSLPVVVIVHGNQEPQSWATITWDNAFAEIVRDPFMITDRVTWAQLSVALNIKFGSCTGRSLTIDNLDFLYEKLQREERSEYITWNQFCKEPMPDRSFTFWEWFFAIMKLTKDHMLGMWKAGCIMGFINKTKAQTDLLRSVYGIGTFLLRFSDSELGGVTIAYVNENGLVTMLAPWTARDFQVLNLADRIRDLDVLCWLHPSDRNASPVKRDVAFGEFYSKRQEPEPLVLDPVTGYVKSTLHVHVCRNGENGSTSGTPHHAQESMQLGNGDFGMADFDTITNFENF
In the case of B2, the binding [1] is reported as “binds”.

B3: Endogenous Stat92E (protein, UniProt Q24151 1-761)
chain: MSLWKRISSHVDCEQRMAAYYEEKGMLELRLCLAPWIEDRIMSEQITPNTTDQLERVALKFNEDLQQKLLSTRTASDQALKFRVVELCALIQRISAVELYTHLRSGLQKELQLVTEKSVAATAGQSMPLNPYNMNNTPMVTGYMVDPSDLLAVSNSCNPPVVQGIGPIHNVQNTGIASPALGMVTPKVELYEVQHQIMQSLNEFGNCANALKLLAQNYSYMLNSTSSPNAEAAYRSLIDEKAAIVLTMRRSFMYYESLHEMVIHELKNWRHQQAQAGNGAPFNEGSLDDIQRCFEMLESFIAHMLAAVKELMRVRLVTEEPELTHLLEQVQNAQKNLVCSAFIVDKQPPQVMKTNTRFAASVRWLIGSQLGIHNNPPTVECIIMSEIQSQRFVTRNTQMDNSSLSGQSSGEIQNASSTMEYQQNNHVFSASFRNMQLKKIKRAEKKGTESVMDEKFALFFYTTTTVNDFQIRVWTLSLPVVVIVHGNQEPQSWATITWDNAFAEIVRDPFMITDRVTWAQLSVALNIKFGSCTGRSLTIDNLDFLYEKLQREERSEYITWNQFCKEPMPDRSFTFWEWFFAIMKLTKDHMLGMWKAGCIMGFINKTKAQTDLLRSVYGIGTFLLRFSDSELGGVTIAYVNENGLVTMLAPWTARDFQVLNLADRIRDLDVLCWLHPSDRNASPVKRDVAFGEFYSKRQEPEPLVLDPVTGYVKSTLHVHVCRNGENGSTSGTPHHAQESMQLGNGDFGMADFDTITNFENF
For B3, the binding [2] was “binds”.
